Measurements from PMC5554226.
Results are given in words; binding and its absence hold for the method and conditions named. In cells and extracts the contact can be indirect. Some entries that bind do so weakly or less than the wild type.

By UniProt entry, the sequences of proteins in these tests, tags left out.
UniProt P08588: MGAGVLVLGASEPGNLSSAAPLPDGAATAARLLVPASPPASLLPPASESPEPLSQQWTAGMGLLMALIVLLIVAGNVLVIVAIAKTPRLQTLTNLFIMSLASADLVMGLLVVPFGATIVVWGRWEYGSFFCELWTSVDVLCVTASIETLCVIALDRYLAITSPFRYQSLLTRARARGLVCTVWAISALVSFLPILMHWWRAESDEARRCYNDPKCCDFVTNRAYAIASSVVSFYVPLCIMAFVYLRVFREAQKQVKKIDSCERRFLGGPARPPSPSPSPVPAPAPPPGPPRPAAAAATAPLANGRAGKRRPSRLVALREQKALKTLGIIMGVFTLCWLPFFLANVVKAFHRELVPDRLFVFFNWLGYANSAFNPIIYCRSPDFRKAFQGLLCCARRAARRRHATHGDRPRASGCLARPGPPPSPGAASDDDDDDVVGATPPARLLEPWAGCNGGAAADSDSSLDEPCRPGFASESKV
UniProt P63096: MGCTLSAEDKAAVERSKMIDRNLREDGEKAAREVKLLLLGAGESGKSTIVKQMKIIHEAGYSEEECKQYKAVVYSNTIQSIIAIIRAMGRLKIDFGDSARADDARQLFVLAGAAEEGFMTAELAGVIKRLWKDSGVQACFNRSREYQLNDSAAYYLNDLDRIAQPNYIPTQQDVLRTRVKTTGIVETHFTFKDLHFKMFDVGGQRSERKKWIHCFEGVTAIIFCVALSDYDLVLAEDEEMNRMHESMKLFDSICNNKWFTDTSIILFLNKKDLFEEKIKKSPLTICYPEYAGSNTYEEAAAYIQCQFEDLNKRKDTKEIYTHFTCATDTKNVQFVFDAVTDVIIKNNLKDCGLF

Target: β1-AR-GFP10 (UniProt P08588)
Experiment: FRET or BRET; BRET2 in living HEK293T cells between Gα-Rluc8 and β1-AR-GFP10 or β2-AR-GFP10 with untagged Gγ2 and Gβ3; several Gαi1-Rluc8 expression levels; with or without 10 µM ISO, NE or EPI for 1 min

- binding: binds
Substance: Gαi1-Rluc8 (from UniProt P63096 1-354)
